{"source": "PubChem BioAssay AID1224830 (NIAID, 2016)", "test": "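Host factors that control LPS-induced TNF expression in human macrophages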 (primary screen)", "system": "human THP-1 monocytic leukaemia cells, TNF dual-luciferase reporter clone, PMA-differentiated to macrophage-like cells", "reagent": "siRNA pool against human genes, 50 nM", "time to read-out": "LPS for 4 h, given about 3 days after siRNA transfection", "conditions": "bacterial LPS (TLR4 ligand), 10 ng/ml", "measurement": "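Ratio of firefly to renilla light, scaled to the plate median and expressed as a robust z-score per replicate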", "direction": "TNF reporter robust z-score: higher = stronger TNF reporter response to LPS", "hit rule": "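a well is active when its z-score exceeds 2.8 or falls below -1.5; control wells carry no call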", "note": "This is a random part of about 18,000 reagents tested. Over the whole deposit, about 2,900 (16%) were called active. 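Calls are made per well; low scores hint the gene aids the LPS response, high scores that it dampens it.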 Repeated entries: four replicate wells of each siRNA pool. No sequences are given here."}
{"gene knocked down": "COQ10B (coenzyme Q10B)", "TNF reporter robust z-score": 1.54, "Call": "inactive"}
{"gene knocked down": "COQ10B (coenzyme Q10B)", "TNF reporter robust z-score": 0.93, "Call": "inactive"}
{"gene knocked down": "COQ10B (coenzyme Q10B)", "TNF reporter robust z-score": 0.73, "Call": "inactive"}
{"gene knocked down": "COQ10B (coenzyme Q10B)", "TNF reporter robust z-score": 1.66, "Call": "inactive"}
{"gene knocked down": "COPRS (coordinator of PRMT5 and differentiation stimulator)", "TNF reporter robust z-score": 1.14, "Call": "inactive"}
{"gene knocked down": "COPRS (coordinator of PRMT5 and differentiation stimulator)", "TNF reporter robust z-score": 1.49, "Call": "inactive"}
{"gene knocked down": "COPRS (coordinator of PRMT5 and differentiation stimulator)", "TNF reporter robust z-score": -0.58, "Call": "inactive"}
{"gene knocked down": "COPRS (coordinator of PRMT5 and differentiation stimulator)", "TNF reporter robust z-score": 1.63, "Call": "inactive"}
{"gene knocked down": "UNC45B (unc-45 myosin chaperone B)", "TNF reporter robust z-score": 0.44, "Call": "inactive"}
{"gene knocked down": "UNC45B (unc-45 myosin chaperone B)", "TNF reporter robust z-score": 0.14, "Call": "inactive"}
{"gene knocked down": "UNC45B (unc-45 myosin chaperone B)", "TNF reporter robust z-score": -1.12, "Call": "inactive"}
{"gene knocked down": "UNC45B (unc-45 myosin chaperone B)", "TNF reporter robust z-score": 0.15, "Call": "inactive"}
{"gene knocked down": "BLOC1S6 (biogenesis of lysosomal organelles complex 1 subunit 6)", "TNF reporter robust z-score": 0.15, "Call": "inactive"}
{"gene knocked down": "BLOC1S6 (biogenesis of lysosomal organelles complex 1 subunit 6)", "TNF reporter robust z-score": -0.05, "Call": "inactive"}
{"gene knocked down": "BLOC1S6 (biogenesis of lysosomal organelles complex 1 subunit 6)", "TNF reporter robust z-score": -0.18, "Call": "inactive"}
{"gene knocked down": "BLOC1S6 (biogenesis of lysosomal organelles complex 1 subunit 6)", "TNF reporter robust z-score": -0.19, "Call": "inactive"}
{"gene knocked down": "HIF1AN (hypoxia inducible factor 1 subunit alpha inhibitor)", "TNF reporter robust z-score": 0.22, "Call": "inactive"}
{"gene knocked down": "HIF1AN (hypoxia inducible factor 1 subunit alpha inhibitor)", "TNF reporter robust z-score": 2.28, "Call": "inactive"}
{"gene knocked down": "HIF1AN (hypoxia inducible factor 1 subunit alpha inhibitor)", "TNF reporter robust z-score": 0.08, "Call": "inactive"}
{"gene knocked down": "HIF1AN (hypoxia inducible factor 1 subunit alpha inhibitor)", "TNF reporter robust z-score": 0.13, "Call": "inactive"}
{"gene knocked down": "OR5D13 (olfactory receptor family 5 subfamily D member 13)", "TNF reporter robust z-score": -0.36, "Call": "inactive"}
{"gene knocked down": "OR5D13 (olfactory receptor family 5 subfamily D member 13)", "TNF reporter robust z-score": 0.12, "Call": "inactive"}
{"gene knocked down": "OR5D13 (olfactory receptor family 5 subfamily D member 13)", "TNF reporter robust z-score": 0.66, "Call": "inactive"}

Sorted by “TNF reporter robust z-score” (lowest first): some entries from above
{"gene knocked down": "COPRS (coordinator of PRMT5 and differentiation stimulator)", "TNF reporter robust z-score": 1.14, "Call": "inactive"}
{"gene knocked down": "COPRS (coordinator of PRMT5 and differentiation stimulator)", "TNF reporter robust z-score": 1.49, "Call": "inactive"}
{"gene knocked down": "COQ10B (coenzyme Q10B)", "TNF reporter robust z-score": 1.66, "Call": "inactive"}

Additional records follow:
{"gene knocked down": "GHITM (growth hormone inducible transmembrane protein)", "TNF reporter robust z-score": -0.46, "Call": "inactive"}
{"gene knocked down": "GHITM (growth hormone inducible transmembrane protein)", "TNF reporter robust z-score": -0.16, "Call": "inactive"}
{"gene knocked down": "GHITM (growth hormone inducible transmembrane protein)", "TNF reporter robust z-score": -0.41, "Call": "inactive"}
{"gene knocked down": "GHITM (growth hormone inducible transmembrane protein)", "TNF reporter robust z-score": 0.94, "Call": "inactive"}
{"gene knocked down": "TRIM16 (tripartite motif containing 16)", "TNF reporter robust z-score": 1.65, "Call": "inactive"}
{"gene knocked down": "TRIM16 (tripartite motif containing 16)", "TNF reporter robust z-score": 5.32, "Call": "active"}
{"gene knocked down": "TRIM16 (tripartite motif containing 16)", "TNF reporter robust z-score": 0.35, "Call": "inactive"}
{"gene knocked down": "TRIM16 (tripartite motif containing 16)", "TNF reporter robust z-score": 1.83, "Call": "inactive"}
{"gene knocked down": "DHRS13 (dehydrogenase/reductase 13)", "TNF reporter robust z-score": -0.92, "Call": "inactive"}
{"gene knocked down": "DHRS13 (dehydrogenase/reductase 13)", "TNF reporter robust z-score": -1.39, "Call": "inactive"}
{"gene knocked down": "DHRS13 (dehydrogenase/reductase 13)", "TNF reporter robust z-score": -1.12, "Call": "inactive"}
{"gene knocked down": "DHRS13 (dehydrogenase/reductase 13)", "TNF reporter robust z-score": -1.02, "Call": "inactive"}
{"gene knocked down": "KBTBD6 (kelch repeat and BTB domain containing 6)", "TNF reporter robust z-score": 2.5, "Call": "inactive"}
{"gene knocked down": "KBTBD6 (kelch repeat and BTB domain containing 6)", "TNF reporter robust z-score": 1.97, "Call": "inactive"}
{"gene knocked down": "KBTBD6 (kelch repeat and BTB domain containing 6)", "TNF reporter robust z-score": 3.52, "Call": "active"}
{"gene knocked down": "KBTBD6 (kelch repeat and BTB domain containing 6)", "TNF reporter robust z-score": 1.62, "Call": "inactive"}
{"gene knocked down": "TSR1 (TSR1 ribosome maturation factor)", "TNF reporter robust z-score": -0.01, "Call": "inactive"}
{"gene knocked down": "TSR1 (TSR1 ribosome maturation factor)", "TNF reporter robust z-score": 0.23, "Call": "inactive"}
{"gene knocked down": "TSR1 (TSR1 ribosome maturation factor)", "TNF reporter robust z-score": 0.68, "Call": "inactive"}
{"gene knocked down": "TSR1 (TSR1 ribosome maturation factor)", "TNF reporter robust z-score": 0.22, "Call": "inactive"}
{"gene knocked down": "IL27RA (interleukin 27 receptor subunit alpha)", "TNF reporter robust z-score": -0.83, "Call": "inactive"}
{"gene knocked down": "IL27RA (interleukin 27 receptor subunit alpha)", "TNF reporter robust z-score": -0.64, "Call": "inactive"}
{"gene knocked down": "IL27RA (interleukin 27 receptor subunit alpha)", "TNF reporter robust z-score": -0.97, "Call": "inactive"}
{"gene knocked down": "IL27RA (interleukin 27 receptor subunit alpha)", "TNF reporter robust z-score": -0.35, "Call": "inactive"}
